This series deals with injured neural tissue. Briefly: NGS analysis of HCDR3s recovered after in vivo biopanning. The arrangement: species or system C57Bl/6 mice. The following applies: for Enrichment Value: fold enrichment, Round 2 reads/Round 1 reads; for Frequency: observed after biopanning, NGS.

From patent US11789029B2, “Temporal traumatic brain injury biomarkers and methods of use thereof” (ARIZONA BOARD OF REGENTS ON BEHALF OF ARIZONA STATE …, priority 2019, dated 2023) come the findings set out here.

On to AAPSWNNHVSY [SA2, 4, subacute injury], for which the “Enrichment Value” was 17.57 and the Frequency is on record as 246.
With “TAERDARTFQY (cyclized on bromoacetamide scaffold with biotin) [A1, 1, acute stage; peptide cyclized on bromoacetamide scaffold containing biotin]”, the “Enrichment Value” was 2.47 and the Frequency was 111.
The matching figures for “SLYGSSRHTAPISF (cyclized on bromoacetamide scaffold with biotin) [A2, 2, acute stage; peptide cyclized on bromoacetamide scaffold containing biotin]”: 22 and 22.
Consider “TDLAVAHPVRY (cyclized on bromoacetamide scaffold with biotin) [SA1, 3, subacute stage; peptide cyclized on bromoacetamide scaffold containing biotin]”, for which the “Enrichment Value” was found to be 49 and the Frequency was determined as 638.
